In patent publication US20220119490A1 one finds binding data, which are given here for 6 molecules.

Chains of the proteins cited; added tags and fusions are not shown. Residues count along the entry.
UniProt Q92823, residues 25-1167: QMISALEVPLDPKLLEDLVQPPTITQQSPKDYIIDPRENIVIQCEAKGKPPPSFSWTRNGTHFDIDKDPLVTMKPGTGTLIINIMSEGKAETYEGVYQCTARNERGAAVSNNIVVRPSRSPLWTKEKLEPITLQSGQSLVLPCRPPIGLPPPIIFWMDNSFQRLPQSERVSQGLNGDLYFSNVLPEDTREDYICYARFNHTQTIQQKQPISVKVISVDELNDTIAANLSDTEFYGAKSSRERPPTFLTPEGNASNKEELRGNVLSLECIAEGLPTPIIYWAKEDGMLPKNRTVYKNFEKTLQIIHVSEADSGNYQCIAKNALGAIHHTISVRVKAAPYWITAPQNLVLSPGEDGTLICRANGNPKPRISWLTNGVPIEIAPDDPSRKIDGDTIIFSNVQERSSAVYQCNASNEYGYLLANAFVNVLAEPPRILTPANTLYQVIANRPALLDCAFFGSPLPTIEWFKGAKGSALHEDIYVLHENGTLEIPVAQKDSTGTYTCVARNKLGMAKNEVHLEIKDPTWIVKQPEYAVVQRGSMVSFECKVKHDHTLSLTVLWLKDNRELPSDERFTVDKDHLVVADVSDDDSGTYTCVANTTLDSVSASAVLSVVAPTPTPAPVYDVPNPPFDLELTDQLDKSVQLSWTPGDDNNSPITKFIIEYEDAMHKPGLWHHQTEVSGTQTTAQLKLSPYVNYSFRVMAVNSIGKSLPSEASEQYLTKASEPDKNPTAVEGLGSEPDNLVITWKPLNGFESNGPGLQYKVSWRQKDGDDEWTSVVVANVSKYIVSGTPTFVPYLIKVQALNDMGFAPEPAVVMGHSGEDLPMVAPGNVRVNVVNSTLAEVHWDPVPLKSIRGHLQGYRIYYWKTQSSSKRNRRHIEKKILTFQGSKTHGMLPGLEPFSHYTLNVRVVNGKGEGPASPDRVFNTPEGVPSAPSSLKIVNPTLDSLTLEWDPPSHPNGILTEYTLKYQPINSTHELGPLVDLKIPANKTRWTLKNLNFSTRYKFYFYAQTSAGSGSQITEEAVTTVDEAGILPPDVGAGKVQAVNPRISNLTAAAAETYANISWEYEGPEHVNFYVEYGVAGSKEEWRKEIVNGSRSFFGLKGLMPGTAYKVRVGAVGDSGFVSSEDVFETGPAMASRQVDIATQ
UniProt O00481, residues 30-513: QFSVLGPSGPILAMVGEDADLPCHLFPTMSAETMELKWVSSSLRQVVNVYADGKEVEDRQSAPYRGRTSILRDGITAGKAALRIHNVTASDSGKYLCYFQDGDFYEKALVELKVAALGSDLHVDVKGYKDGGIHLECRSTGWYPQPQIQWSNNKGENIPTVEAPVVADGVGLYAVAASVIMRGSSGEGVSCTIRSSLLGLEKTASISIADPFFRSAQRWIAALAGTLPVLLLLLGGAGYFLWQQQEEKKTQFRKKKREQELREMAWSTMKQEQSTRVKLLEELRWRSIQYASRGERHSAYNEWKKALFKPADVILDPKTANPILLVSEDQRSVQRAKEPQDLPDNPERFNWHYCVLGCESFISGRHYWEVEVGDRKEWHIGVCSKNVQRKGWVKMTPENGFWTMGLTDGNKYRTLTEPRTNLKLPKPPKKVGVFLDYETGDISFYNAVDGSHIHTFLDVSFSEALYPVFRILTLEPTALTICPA
UniProt P78410, residues 30-334: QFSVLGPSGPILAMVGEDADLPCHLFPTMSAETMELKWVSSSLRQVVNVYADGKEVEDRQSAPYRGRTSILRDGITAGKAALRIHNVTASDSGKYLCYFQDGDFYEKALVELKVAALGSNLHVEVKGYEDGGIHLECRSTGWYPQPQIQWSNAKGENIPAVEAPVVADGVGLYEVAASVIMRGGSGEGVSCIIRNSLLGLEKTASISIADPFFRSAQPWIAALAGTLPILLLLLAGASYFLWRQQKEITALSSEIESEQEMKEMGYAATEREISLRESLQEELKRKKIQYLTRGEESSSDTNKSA
UniProt O00478, residues 30-584: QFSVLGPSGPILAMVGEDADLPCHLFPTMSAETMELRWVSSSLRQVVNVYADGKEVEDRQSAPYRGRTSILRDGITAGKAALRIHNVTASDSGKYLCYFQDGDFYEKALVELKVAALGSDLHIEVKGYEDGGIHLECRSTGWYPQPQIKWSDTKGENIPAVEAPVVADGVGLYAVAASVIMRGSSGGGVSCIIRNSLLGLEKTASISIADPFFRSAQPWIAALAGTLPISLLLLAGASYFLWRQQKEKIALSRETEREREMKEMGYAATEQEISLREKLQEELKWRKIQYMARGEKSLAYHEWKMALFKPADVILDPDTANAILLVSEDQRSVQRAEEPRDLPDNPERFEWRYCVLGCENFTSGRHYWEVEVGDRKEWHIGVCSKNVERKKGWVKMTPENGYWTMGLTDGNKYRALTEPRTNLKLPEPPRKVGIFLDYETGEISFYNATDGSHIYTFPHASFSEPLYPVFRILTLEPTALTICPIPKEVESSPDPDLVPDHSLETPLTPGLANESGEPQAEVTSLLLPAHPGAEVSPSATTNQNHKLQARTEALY
UniProt P30530, residues 26-894: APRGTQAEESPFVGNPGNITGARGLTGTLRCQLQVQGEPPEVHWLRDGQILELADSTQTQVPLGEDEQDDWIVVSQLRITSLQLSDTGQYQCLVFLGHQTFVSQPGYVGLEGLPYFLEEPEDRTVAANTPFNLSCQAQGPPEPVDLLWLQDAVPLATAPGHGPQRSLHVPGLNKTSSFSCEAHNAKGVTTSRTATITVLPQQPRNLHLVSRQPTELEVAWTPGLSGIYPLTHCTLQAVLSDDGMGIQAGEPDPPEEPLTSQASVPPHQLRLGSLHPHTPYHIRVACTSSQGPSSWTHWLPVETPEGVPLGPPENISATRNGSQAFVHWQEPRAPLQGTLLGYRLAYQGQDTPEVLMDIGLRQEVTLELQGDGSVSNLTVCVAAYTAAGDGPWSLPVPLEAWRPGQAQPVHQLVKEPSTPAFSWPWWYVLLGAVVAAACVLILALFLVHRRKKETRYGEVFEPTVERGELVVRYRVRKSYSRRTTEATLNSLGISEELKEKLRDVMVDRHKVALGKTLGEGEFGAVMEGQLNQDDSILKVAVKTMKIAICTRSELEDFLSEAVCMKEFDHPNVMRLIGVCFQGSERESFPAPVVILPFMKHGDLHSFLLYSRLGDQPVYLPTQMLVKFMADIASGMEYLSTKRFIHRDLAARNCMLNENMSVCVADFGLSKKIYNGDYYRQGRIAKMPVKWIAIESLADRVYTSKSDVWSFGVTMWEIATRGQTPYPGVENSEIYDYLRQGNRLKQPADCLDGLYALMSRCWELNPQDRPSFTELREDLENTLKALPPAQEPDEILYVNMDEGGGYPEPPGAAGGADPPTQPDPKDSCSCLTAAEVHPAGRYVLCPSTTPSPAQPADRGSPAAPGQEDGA

These are yes or no findings as the source states them, for the method shown. For some of these results: Binding seen in cells or lysates may run through a third protein. Some results given as binding are weak or reduced against the parent protein; the word gives no strength. For some of these results: Sequences can lack the tags named with a protein.

Assay [1] deals with T1, NFASC (recombinant) (human) (UniProt O94856).
T1 sequence (looked up): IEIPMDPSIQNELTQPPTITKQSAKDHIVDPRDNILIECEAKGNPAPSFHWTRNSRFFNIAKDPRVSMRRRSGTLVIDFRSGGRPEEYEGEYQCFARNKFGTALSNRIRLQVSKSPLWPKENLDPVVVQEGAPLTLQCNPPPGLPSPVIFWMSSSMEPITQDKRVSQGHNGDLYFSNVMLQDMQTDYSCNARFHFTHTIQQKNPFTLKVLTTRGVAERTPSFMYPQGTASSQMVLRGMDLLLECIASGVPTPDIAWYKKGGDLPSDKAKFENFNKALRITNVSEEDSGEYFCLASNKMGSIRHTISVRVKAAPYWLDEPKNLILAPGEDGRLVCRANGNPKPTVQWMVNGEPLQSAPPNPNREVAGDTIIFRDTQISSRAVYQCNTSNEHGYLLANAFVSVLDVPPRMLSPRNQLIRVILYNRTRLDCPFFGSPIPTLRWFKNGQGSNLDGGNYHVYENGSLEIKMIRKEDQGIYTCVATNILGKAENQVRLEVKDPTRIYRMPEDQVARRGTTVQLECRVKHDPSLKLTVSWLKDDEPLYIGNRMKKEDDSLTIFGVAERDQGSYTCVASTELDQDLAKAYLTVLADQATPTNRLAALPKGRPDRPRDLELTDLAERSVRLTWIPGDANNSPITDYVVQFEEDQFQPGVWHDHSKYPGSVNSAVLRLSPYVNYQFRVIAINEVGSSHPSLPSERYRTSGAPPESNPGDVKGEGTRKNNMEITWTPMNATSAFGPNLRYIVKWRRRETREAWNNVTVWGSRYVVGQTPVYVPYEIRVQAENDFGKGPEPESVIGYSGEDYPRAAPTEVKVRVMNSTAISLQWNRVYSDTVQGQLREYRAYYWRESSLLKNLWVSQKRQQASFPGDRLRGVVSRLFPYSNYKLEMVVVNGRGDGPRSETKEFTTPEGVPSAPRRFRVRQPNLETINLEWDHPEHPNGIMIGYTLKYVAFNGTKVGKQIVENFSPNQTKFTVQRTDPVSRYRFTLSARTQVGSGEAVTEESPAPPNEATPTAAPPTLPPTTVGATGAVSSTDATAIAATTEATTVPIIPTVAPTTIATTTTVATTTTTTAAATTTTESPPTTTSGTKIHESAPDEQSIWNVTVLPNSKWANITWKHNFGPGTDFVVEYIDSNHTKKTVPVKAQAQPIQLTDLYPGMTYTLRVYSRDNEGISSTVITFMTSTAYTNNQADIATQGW
The assay can be described thus: SPR, NFASC immobilized, CNTN1 ECD-Fc injected at 250 nM.

Assay [2] addresses NRCAM (recombinant) (human) (UniProt Q92823). In words: SPR, NRCAM immobilized, CNTN1 ECD-Fc injected at 250 nM. In general terms: Surface plasmon resonance follows binding to a sensor surface in real time, without labels.
Assay [3] addresses BTN3A1 full-length (co-IP) (human) (UniProt O00481). The assay can be described thus: co-immunoprecipitation from co-transfected cells, IP anti-FLAG, western blot anti-HA.
The target is the same in assay [4]. In words: co-immunoprecipitation from co-transfected cells, IP anti-FLAG, western blot.
The target in assay [5] is BTN3A2 full-length (co-IP) (human) (UniProt P78410). The assay is described as above.
The target of assay [6] is BTN3A3 full-length (co-IP) (human) (UniProt O00478). The description is as above.
Another assay addresses ANTRX1. In words: cell surface interaction assay: query ECD tetramerised with fluorescent streptavidin on transfected cells, immunofluorescence.
The target of assay [7] is AXL full-length (co-IP) (human) (UniProt P30530). In words: co-immunoprecipitation from co-transfected cells, IP anti-FLAG, western blot. Background: In western blotting, separated proteins are transferred to a membrane and probed.

B1: CNTN1 extracellular domain (receptor, human, UniProt Q12860 21-993, looked up)
chain: EFTWYRRYGHGVSEEDKGFGPIFEEQPINTIYPEESLEGKVSLNCRARASPFPVYKWRMNNGDVDLTSDRYSMVGGNLVINNPDKQKDAGIYYCLASNNYGMVRSTEATLSFGYLDPFPPEERPEVRVKEGKGMVLLCDPPYHFPDDLSYRWLLNEFPVFITMDKRRFVSQTNGNLYIANVEASDKGNYSCFVSSPSITKSVFSKFIPLIPIPERTTKPYPADIVVQFKDVYALMGQNVTLECFALGNPVPDIRWRKVLEPMPSTAEISTSGAVLKIFNIQLEDEGIYECEAENIRGKDKHQARIYVQAFPEWVEHINDTEVDIGSDLYWPCVATGKPIPTIRWLKNGYAYHKGELRLYDVTFENAGMYQCIAENTYGAIYANAELKILALAPTFEMNPMKKKILAAKGGRVIIECKPKAAPKPKFSWSKGTEWLVNSSRILIWEDGSLEINNITRNDGGIYTCFAENNRGKANSTGTLVITDPTRIILAPINADITVGENATMQCAASFDPALDLTFVWSFNGYVIDFNKENIHYQRNFMLDSNGELLIRNAQLKHAGRYTCTAQTIVDNSSASADLVVRGPPGPPGGLRIEDIRATSVALTWSRGSDNHSPISKYTIQTKTILSDDWKDAKTDPPIIEGNMEAARAVDLIPWMEYEFRVVATNTLGRGEPSIPSNRIKTDGAAPNVAPSDVGGGGGRNRELTITWAPLSREYHYGNNFGYIVAFKPFDGEEWKKVTVTNPDTGRYVHKDETMSPSTAFQVKVKAFNNKGDGPYSLVAVINSAQDAPSEAPTEVGVKVLSSSEISVHWEHVLEKIVESYQIRYWAAHDKEEAANRVQVTSQEYSARLENLLPDTQYFIEVGACNSAGCGPPSDMIEAFTKKAPPSQPPRIISSVRSGSRYIITWDHVVALSNESTVTGYKVLYRPDGQHDGKLYSTHKHSIEVPIPRDGEYVVEVRAHSDGGDGVVSQVKIS
For B1, the binding entry in assay [1] and in assay [2] was “binds” in each case.

B2: CDH9-FLAG (receptor, human, UniProt Q9ULB4 54-789, looked up)
immunoprecipitated protein: GWMWNQFFLLEEYTGTDTQYVGKLHTDQDKGDGNLKYILTGDGAGSLFVIDENTGDIHAAKKLDREEKSLYILRAKAIDRKTGRQVEPESEFIIKIHDINDNEPKFTKDLYTASVPEMSGVGTSVIQVTATDADDANYGNSAKVVYSILQGQPYFSVDPESGIIKTALPDMSRENREQYQVVIQAKDMGGQMGGLSGTTTVNITLTDVNNNPPRFPQSTYQFNSPESVPLGTHLGRIKANDPDVGENAEMEYSIAEGDGADMFDVITDKDTQEGIITVKQNLDFENQMLYTLRVDASNTHPDPRFLHLGPFKDTAVVKISVEDIDEPPVFTKVSYLIEVDEDVKEGSIIGQVTAYDPDARNNLIKYSVDRHTDMDRIFGIHSENGSIFTLKALDRESSPWHNITVTATEINNPKQSSHIPVFIRILDINDHAPEFAMYYETFVCENAKPGQLIQTVSVMDKDDPPRGHKFFFEPVPEFTLNPNFTIVDNKDNTAGIMTRKDGYSRNKMSTYLLPILIFDNDYPIQSSTGTLTIRVCACDNQGNMQSCTAEALILSAGLSTGALVAILLCVLILLILVVLFAALKRQRKKEPLIISKDDVRDNIVTYNDEGGGEEDTQAFDIGTLRNPEAREDSKLRRDVMPETIFQIRRTVPLWENIDVQDFIHRRLKENDADPSAPPYDSLATYAYEGNDSIADSLSSLESLTADCNQDYDYLSDWGPRFKKLADMYGGDDSDRD
In the case of B2, the binding entry in assay [3] was “binds”.

B3: LRRC4C-FLAG (receptor, human, UniProt Q9HCJ2 45-640, looked up)
immunoprecipitated protein: QTCPSVCSCSNQFSKVICVRKNLREVPDGISTNTRLLNLHENQIQIIKVNSFKHLRHLEILQLSRNHIRTIEIGAFNGLANLNTLELFDNRLTTIPNGAFVYLSKLKELWLRNNPIESIPSYAFNRIPSLRRLDLGELKRLSYISEGAFEGLSNLRYLNLAMCNLREIPNLTPLIKLDELDLSGNHLSAIRPGSFQGLMHLQKLWMIQSQIQVIERNAFDNLQSLVEINLAHNNLTLLPHDLFTPLHHLERIHLHHNPWNCNCDILWLSWWIKDMAPSNTACCARCNTPPNLKGRYIGELDQNYFTCYAPVIVEPPADLNVTEGMAAELKCRASTSLTSVSWITPNGTVMTHGAYKVRIAVLSDGTLNFTNVTVQDTGMYTCMVSNSVGNTTASATLNVTAATTTPFSYFSTVTVETMEPSQDEARTTDNNVGPTPVVDWETTNVTTSLTPQSTRSTEKTFTIPVTDINSGIPGIDEVMKTTKIIIGCFVAITLMAAVMLVIFYKMRKQHHRQNHHAPTRTVEIINVDDEITGDTPMESHLPMPAIEHEHLNHYNSYKSPFNHTTTVNTINSIHSSVHEPLLIRMNSKDNVQETQI
Regarding B3, in assay [3], the binding result is given as “binds”.

B4: LRRC4B expressed on cells (receptor, human, UniProt Q9NT99 36-713, looked up)
chain: AGGGGVAVTSAAGGGSPPATSCPVACSCSNQASRVICTRRDLAEVPASIPVNTRYLNLQENGIQVIRTDTFKHLRHLEILQLSKNLVRKIEVGAFNGLPSLNTLELFDNRLTTVPTQAFEYLSKLRELWLRNNPIESIPSYAFNRVPSLRRLDLGELKRLEYISEAAFEGLVNLRYLNLGMCNLKDIPNLTALVRLEELELSGNRLDLIRPGSFQGLTSLRKLWLMHAQVATIERNAFDDLKSLEELNLSHNNLMSLPHDLFTPLHRLERVHLNHNPWHCNCDVLWLSWWLKETVPSNTTCCARCHAPAGLKGRYIGELDQSHFTCYAPVIVEPPTDLNVTEGMAAELKCRTGTSMTSVNWLTPNGTLMTHGSYRVRISVLHDGTLNFTNVTVQDTGQYTCMVTNSAGNTTASATLNVSAVDPVAAGGTGSGGGGPGGSGGVGGGSGGYTYFTTVTVETLETQPGEEALQPRGTEKEPPGPTTDGVWGGGRPGDAAGPASSSTTAPAPRSSRPTEKAFTVPITDVTENALKDLDDVMKTTKIIIGCFVAITFMAAVMLVAFYKLRKQHQLHKHHGPTRTVEIINVEDELPAASAVSVAAAAAVASGGGVGGDSHLALPALERDHLNHHHYVAAAFKAHYSSNPSGGGCGGKGPPGLNSIHEPLLFKSGSKENVQETQI
Regarding B4, the binding entry in assay [4], in assay [5], in assay [6] and in assay [3] was “binds” in each case.

B5: TREML2 (receptor, human, UniProt Q5T2D2 19-268, looked up)
soluble query ectodomain: GPSADSVYTKVRLLEGETLSVQCSYKGYKNRVEGKVWCKIRKKKCEPGFARVWVKGPRYLLQDDAQAKVVNITMVALKLQDSGRYWCMRNTSGILYPLMGFQLDVSPAPQTERNIPFTHLDNILKSGTVTTGQAPTSGPDAPFTTGVMVFTPGLITLPRLLASTRPASKTGYSFTATSTTSQGPRRTMGSQTVTASPSNARDSSAGPESISTKSGDLSTRSPTTGLCLTSRSLLNRLPSMPSIRHQDVYS
modifications: biotinylated
Regarding B5, the binding entry in the assay with ANTRX1 is listed as “binds”.

B6: VSIG10L full-length (co-IP) (receptor, human, UniProt Q86VR7 28-867, looked up)
chain: LQQTNFSSAFSSDSKSSSQGLGVEVPSIKPPSWKVPDQFLDSKASAGISDSSWFPEALSSNMSGSFWSNVSAEGQDLSPVSPFSETPGSEVFPDISDPQVPAKDPKPSFTVKTPASNISTQVSHTKLSVEAPDSKFSPDDMDLKLSAQSPESKFSAETHSAASFPQQVGGPLAVLVGTTIRLPLVPIPNPGPPTSLVVWRRGSKVLAAGGLGPGAPLISLDPAHRDHLRFDQARGVLELASAQLDDAGVYTAEVIRAGVSQQTHEFTVGVYEPLPQLSVQPKAPETEEGAAELRLRCLGWGPGRGELSWSRDGRALEAAESEGAETPRMRSEGDQLLIVRPVRSDHARYTCRVRSPFGHREAAADVSVFYGPDPPTITVSSDRDAAPARFVTAGSNVTLRCAAASRPPADITWSLADPAEAAVPAGSRLLLPAVGPGHAGTYACLAANPRTGRRRRSLLNLTVADLPPGAPQCSVEGGPGDRSLRFRCSWPGGAPAASLQFQGLPEGIRAGPVSSVLLAAVPAHPRLSGVPITCLARHLVATRTCTVTPEAPREVLLHPLVAETRLGEAEVALEASGCPPPSRASWAREGRPLAPGGGSRLRLSQDGRKLHIGNFSLDWDLGNYSVLCSGALGAGGDQITLIGPSISSWRLQRARDAAVLTWDVERGALISSFEIQAWPDGPALGRTSTYRDWVSLLILGPQERSAVVPLPPRNPGTWTFRILPILGGQPGTPSQSRVYRAGPTLSHGAIAGIVLGSLLGLALLAVLLLLCICCLCRFRGKTPEKKKHPSTLVPVVTPSEKKMHSVTPVEISWPLDLKVPLEDHSSTRAYQAQTPVQLSL
For the molecule B6, the binding entry in assay [7] is recorded as “binds”.
